Data as given in the supplement of paper PMC10849652.
This is one part of the list.

Chains of the proteins cited; added tags and fusions are not shown. Lines headed by an entry give the natural chain unless they say otherwise; changes in a name come on top.
UniProt Q15814: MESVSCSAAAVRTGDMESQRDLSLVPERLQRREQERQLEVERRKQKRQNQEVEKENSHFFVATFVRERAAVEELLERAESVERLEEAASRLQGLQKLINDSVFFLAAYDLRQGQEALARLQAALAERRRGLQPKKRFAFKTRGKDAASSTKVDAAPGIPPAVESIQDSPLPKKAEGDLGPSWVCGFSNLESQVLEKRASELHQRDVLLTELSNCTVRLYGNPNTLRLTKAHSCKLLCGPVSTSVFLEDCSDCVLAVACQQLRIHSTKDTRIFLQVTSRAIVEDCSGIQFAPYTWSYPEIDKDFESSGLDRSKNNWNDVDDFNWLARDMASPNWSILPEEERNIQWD
UniProt Q9Y4P3: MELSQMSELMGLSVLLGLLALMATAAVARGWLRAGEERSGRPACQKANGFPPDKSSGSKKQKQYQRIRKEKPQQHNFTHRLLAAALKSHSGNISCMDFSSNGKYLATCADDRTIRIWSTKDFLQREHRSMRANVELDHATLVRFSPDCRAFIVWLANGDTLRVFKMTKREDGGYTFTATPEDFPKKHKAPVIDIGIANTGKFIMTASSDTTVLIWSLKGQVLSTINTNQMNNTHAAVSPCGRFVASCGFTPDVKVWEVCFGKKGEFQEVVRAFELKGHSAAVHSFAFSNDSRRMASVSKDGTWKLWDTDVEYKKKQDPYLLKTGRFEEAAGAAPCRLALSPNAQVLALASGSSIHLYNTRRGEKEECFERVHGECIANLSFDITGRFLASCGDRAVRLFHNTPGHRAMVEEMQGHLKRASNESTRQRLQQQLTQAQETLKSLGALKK
UniProt Q99081: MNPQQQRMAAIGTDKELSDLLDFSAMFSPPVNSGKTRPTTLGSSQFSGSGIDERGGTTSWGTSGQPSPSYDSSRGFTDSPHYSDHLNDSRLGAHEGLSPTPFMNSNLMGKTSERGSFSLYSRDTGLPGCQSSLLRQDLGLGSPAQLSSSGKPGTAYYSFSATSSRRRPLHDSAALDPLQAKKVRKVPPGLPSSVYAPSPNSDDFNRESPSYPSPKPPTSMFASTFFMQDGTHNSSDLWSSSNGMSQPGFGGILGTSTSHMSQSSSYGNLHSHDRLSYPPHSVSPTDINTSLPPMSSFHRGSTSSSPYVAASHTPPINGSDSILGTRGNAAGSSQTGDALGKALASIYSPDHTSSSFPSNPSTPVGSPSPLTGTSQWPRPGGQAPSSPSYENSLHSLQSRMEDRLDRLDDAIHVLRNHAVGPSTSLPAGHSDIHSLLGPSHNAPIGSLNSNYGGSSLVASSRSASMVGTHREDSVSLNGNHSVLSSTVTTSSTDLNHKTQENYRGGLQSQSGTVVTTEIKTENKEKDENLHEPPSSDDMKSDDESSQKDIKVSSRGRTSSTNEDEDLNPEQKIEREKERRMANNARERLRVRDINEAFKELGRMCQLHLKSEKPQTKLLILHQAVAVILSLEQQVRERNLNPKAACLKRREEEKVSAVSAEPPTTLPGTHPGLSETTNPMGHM
UniProt Q8WUH2: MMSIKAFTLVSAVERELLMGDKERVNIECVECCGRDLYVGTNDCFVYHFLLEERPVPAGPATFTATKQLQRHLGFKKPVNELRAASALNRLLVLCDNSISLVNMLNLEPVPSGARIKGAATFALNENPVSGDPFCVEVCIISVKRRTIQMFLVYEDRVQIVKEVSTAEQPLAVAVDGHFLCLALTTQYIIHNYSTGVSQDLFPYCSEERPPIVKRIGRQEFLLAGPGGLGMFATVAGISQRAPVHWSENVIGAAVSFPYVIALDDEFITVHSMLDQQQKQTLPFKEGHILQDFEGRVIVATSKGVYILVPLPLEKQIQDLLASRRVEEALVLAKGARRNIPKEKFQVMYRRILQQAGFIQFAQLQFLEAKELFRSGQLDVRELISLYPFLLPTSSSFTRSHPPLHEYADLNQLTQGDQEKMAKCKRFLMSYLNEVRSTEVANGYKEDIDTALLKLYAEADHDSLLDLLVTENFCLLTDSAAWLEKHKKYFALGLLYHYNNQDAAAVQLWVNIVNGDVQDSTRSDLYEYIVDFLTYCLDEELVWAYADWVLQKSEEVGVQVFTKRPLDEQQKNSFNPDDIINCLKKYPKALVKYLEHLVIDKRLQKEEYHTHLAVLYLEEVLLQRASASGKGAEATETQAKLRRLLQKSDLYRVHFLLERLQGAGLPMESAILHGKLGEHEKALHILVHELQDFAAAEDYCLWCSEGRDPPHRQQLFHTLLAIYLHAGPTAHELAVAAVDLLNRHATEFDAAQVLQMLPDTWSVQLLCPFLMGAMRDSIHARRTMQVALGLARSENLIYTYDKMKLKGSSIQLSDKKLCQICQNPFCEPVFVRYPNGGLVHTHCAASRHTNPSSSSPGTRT
UniProt Q5T1C6: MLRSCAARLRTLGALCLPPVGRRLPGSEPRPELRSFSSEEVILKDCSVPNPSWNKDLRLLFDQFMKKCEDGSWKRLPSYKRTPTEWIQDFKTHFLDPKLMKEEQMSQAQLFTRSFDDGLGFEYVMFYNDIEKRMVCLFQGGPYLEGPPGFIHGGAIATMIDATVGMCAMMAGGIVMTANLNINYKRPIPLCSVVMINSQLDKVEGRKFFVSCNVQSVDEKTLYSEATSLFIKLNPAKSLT
UniProt O43615: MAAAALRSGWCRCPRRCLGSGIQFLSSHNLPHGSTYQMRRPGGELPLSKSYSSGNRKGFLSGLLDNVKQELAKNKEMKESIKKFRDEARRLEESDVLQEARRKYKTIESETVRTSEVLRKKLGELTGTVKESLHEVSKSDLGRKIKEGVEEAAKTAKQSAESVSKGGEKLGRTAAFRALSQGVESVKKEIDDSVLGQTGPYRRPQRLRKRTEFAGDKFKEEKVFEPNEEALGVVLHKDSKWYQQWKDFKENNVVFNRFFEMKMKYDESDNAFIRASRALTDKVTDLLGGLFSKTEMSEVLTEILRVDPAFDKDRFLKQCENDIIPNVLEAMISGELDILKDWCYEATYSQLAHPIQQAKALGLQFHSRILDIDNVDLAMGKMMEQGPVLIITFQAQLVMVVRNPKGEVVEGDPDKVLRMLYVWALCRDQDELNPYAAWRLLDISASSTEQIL
UniProt Q96FV9: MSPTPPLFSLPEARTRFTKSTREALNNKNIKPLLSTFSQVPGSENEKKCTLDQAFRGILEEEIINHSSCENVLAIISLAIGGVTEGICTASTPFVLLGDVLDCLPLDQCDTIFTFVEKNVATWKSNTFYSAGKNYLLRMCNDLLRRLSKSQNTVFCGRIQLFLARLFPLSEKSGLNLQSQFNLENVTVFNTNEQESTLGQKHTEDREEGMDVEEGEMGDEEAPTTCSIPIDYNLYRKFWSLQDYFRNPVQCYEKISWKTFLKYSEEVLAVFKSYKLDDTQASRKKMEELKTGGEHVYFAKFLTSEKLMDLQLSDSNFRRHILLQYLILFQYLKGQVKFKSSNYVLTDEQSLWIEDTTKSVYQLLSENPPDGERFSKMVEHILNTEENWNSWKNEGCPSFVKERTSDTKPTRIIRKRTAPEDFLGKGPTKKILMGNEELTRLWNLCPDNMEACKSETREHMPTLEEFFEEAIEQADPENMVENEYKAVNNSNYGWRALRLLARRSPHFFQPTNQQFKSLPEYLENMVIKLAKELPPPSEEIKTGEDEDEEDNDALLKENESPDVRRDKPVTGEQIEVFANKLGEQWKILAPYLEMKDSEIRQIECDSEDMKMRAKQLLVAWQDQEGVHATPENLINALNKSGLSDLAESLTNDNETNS
UniProt Q92609: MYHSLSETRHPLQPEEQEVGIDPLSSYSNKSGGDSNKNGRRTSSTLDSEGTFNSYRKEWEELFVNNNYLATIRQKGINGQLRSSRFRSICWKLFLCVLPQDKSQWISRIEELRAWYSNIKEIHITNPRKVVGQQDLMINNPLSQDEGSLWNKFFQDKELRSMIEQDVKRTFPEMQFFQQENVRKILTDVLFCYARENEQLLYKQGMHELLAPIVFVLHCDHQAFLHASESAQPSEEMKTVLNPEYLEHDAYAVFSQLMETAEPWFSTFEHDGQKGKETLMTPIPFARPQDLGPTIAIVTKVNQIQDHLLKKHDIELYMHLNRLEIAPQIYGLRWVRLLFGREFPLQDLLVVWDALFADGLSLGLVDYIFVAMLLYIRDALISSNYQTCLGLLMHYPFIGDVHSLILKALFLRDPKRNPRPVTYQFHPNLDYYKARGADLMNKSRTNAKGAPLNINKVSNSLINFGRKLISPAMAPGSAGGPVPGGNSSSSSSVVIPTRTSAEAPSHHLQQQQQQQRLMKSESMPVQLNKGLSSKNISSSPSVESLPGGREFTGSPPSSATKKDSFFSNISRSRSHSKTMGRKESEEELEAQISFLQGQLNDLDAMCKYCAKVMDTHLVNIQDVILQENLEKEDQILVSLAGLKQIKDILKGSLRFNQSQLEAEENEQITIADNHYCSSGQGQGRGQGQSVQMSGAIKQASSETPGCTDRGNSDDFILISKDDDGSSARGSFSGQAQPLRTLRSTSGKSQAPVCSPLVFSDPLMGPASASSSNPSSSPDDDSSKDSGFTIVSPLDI
UniProt Q9Y5J9: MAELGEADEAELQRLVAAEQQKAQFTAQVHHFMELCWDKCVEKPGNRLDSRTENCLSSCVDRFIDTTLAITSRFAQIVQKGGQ
UniProt O75347: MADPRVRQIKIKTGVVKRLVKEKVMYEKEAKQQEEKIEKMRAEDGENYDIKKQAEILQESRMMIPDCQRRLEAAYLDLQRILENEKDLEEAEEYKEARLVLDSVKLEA
UniProt Q14188: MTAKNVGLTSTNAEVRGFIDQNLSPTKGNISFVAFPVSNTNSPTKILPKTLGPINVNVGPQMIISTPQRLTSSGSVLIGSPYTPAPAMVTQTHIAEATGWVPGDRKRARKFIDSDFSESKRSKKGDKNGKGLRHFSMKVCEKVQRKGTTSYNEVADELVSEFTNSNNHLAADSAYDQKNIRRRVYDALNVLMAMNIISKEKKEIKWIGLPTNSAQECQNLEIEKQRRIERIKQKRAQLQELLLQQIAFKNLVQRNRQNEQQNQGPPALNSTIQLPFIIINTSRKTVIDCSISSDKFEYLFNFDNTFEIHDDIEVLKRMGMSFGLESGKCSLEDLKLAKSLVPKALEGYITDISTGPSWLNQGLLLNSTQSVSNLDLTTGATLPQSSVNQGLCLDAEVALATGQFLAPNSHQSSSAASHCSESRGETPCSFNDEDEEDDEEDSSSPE
UniProt Q04726: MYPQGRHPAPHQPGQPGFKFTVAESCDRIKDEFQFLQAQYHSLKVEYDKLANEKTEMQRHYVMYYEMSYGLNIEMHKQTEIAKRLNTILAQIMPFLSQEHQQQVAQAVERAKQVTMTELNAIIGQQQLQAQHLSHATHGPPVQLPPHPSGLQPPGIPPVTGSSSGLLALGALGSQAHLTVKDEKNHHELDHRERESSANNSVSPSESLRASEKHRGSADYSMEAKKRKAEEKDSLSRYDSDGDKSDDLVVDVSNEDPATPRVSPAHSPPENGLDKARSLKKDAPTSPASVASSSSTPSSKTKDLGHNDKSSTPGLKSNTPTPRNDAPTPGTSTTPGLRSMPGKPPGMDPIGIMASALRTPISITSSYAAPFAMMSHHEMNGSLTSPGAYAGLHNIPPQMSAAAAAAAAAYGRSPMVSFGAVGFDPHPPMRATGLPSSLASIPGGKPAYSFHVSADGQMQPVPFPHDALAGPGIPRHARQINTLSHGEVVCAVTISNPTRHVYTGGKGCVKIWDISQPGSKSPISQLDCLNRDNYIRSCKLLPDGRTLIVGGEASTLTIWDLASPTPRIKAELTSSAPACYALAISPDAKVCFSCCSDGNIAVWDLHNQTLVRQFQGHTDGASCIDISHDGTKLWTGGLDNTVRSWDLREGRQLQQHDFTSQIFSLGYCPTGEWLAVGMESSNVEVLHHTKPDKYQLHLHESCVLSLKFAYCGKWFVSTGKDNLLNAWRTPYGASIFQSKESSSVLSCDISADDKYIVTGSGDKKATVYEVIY
UniProt Q5TEJ8: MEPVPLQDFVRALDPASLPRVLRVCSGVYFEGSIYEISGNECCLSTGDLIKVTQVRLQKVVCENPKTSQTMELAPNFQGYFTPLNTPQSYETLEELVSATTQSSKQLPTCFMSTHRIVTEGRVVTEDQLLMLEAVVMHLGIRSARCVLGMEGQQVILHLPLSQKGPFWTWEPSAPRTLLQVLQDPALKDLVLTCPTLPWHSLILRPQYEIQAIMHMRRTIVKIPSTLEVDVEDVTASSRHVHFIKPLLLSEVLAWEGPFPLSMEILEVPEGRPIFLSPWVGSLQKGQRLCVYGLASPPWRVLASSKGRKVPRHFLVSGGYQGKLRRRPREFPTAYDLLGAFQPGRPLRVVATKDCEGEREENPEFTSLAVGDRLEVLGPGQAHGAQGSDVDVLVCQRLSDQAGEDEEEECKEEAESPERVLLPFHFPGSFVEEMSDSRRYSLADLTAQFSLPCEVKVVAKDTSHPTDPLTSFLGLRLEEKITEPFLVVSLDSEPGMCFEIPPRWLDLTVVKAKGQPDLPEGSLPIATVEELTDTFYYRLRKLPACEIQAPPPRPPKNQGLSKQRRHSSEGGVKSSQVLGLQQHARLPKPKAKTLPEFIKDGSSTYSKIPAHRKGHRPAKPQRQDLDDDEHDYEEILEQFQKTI

Tests used:
Experiment in all cases: log2 fold change, soluble protein after heating vs DMSO (PISA); higher = thermal stabilisation; K562 cells, 10 uM, 30 min; active = over 0.2 and 3.5 SD of the protein, either way, in both replicates (recomputed)
[1] = compound: C1=CC=C(C=C1)[C@H](COC2=CC3=C(C=C2)NC(=O)N3)NC(=O)C4=CC=CN(C4=O)CC5=CC(=C(C=C5)F)F
Summary of the method: (§1)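 K562 cells (2×10^6 cells/mL) were treated with 10 μM compound for 30 min, and aliquots were heated for 3 min over 48°C-58°C. Pooled aliquots were extracted in PBS with 0.5% NP-40 at 4°C, and the supernatant after 21,000xg for 90 min was measured by TMTpro 16plex LC-MS/MS with channel sums equalised. Reported thermal stability, relative to control samples and from duplicates, is a log2 fold change.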

[2] = compound: CC1=C(SC2=C1C(=N[C@H](C3=NN=C(N32)C)CC(=O)N)C4=CC=C(C=C4)Cl)C
Summary of the method: as §1

[3] = compound: CC1=C2C(=CC=C1)N=C(N(C2=O)C3=CC=CC=C3C)CN4C=NC5=C(N=CN=C54)N
Summary of the method: as §1

[4] = compound: Cc1sc2c(c1C)C(c1ccc(Cl)cc1)=N[C@@H](CC(=O)OC(C)(C)C)c1nnc(C)n1-2
Summary of the method: as §1

[5] = compound: c1ccc([C@@H]2C[C@H]2NC2CCNCC2)cc1
Summary of the method: as §1

Measured: log2 fold change

TES (UniProt Q9UGI8)
inactive: [1] -0.021 | [2] 0.017 | [3] -0.002 | [4] 0.005 | [5] -0.013

TBCC (UniProt Q15814)
inactive: [1] 0.012 | [2] 0.078 | [3] 0.052 | [4] -0.027 | [5] -0.024

THOC6 (UniProt Q86W42)
inactive: [1] 0.033 | [2] 0.025 | [3] 0.019 | [4] -0.002 | [5] -0.018

TBL2 (UniProt Q9Y4P3)
inactive: [1] 0.009 | [2] -0.104 | [3] -0.011 | [4] 0.038 | [5] -0.059

TCF12 isoform 3 (UniProt Q99081)
inactive: [1] 0.198 | [2] 0.022 | [3] 0.054 | [4] -0.056 | [5] 0.026

TGFBRAP1 (UniProt Q8WUH2)
inactive: [1] -0.021 | [2] 0.03 | [3] 0.075 | [4] -0.105 | [5] -0.004

2 successive records already listed:
TBCC (UniProt Q15814)
inactive: [1] 0.012 | [2] 0.078 | [3] 0.052 | [4] -0.027 | [5] -0.024

THOC6 (UniProt Q86W42)
inactive: [1] 0.033 | [2] 0.025 | [3] 0.019 | [4] -0.002 | [5] -0.018

(cont.)

TDRKH (UniProt Q9Y2W6)
inactive: [1] -0.015 | [2] 0.005 | [3] 0.041 | [4] -0.01 | [5] -0.006

THEM4 (UniProt Q5T1C6)
inactive: [1] 0.012 | [2] 0.014 | [3] -0.027 | [4] -0.02 | [5] 0.009

TIMM23 (UniProt O14925)
inactive: [1] 0 | [2] -0.016 | [3] -0.085 | [4] -0.002 | [5] 0.049

TIMM44 (UniProt O43615)
inactive: [1] -0.099 | [2] 0.043 | [3] 0.088 | [4] 0.008 | [5] -0.017

TERF2 (UniProt Q15554)
inactive: [1] 0.062 | [2] -0.205 | [3] -0.123 | [4] 0.182 | [5] 0.019

TCAF1 (UniProt Q9Y4C2)
inactive: [1] -0.03 | [2] -0.031 | [3] 0.071 | [4] 0.082 | [5] -0.013

THOC1 (UniProt Q96FV9)
inactive: [1] 0.016 | [2] -0.001 | [3] 0.018 | [4] 0.048 | [5] 0.028

TBC1D5 isoform 2 (UniProt Q92609)
inactive: [1] -0.046 | [2] 0.055 | [3] 0.066 | [4] 0.003 | [5] -0.034

TIMM8B (UniProt Q9Y5J9)
inactive: [1] 0 | [2] -0.058 | [3] -0.031 | [4] -0.112 | [5] 0.018

TBCA (UniProt O75347)
inactive: [1] -0.02 | [2] 0.016 | [3] 0.001 | [4] 0.009 | [5] 0.021

TFDP2 (UniProt Q14188)
inactive: [1] 0.124 | [2] -0.103 | [4] -0.017 | [5] 0.178

TCOF1 isoform 3 (UniProt Q13428)
inactive: [4] -0.093

TLE3 (UniProt Q04726)
inactive: [1] 0.09 | [2] -0.086 | [5] 0.083

TEDC2 (UniProt Q7L2K0)
inactive: [4] 0.006

THEMIS2 (UniProt Q5TEJ8)
inactive: [4] 0.165
